Measurements from PMC11379074.

Protein sequences, listed by entry. Tags and fused reporters are not part of them. Lines headed by an entry give the natural chain unless they say otherwise; changes in a name come on top.
UniProt Q14554: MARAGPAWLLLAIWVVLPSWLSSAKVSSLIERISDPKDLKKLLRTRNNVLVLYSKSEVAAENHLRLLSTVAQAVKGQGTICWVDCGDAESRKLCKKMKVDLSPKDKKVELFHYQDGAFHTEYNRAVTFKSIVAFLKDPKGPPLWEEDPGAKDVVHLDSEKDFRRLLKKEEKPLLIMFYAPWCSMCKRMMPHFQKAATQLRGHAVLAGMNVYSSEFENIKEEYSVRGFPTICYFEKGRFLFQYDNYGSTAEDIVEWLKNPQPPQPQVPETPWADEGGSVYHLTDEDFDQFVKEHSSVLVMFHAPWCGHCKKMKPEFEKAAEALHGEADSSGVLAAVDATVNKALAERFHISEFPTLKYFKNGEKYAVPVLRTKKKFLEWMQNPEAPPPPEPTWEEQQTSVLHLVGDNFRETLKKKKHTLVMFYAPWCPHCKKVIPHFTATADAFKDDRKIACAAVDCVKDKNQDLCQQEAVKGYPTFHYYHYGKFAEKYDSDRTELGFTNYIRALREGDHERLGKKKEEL

Target: Flag-mut-PDIA5 (human) (UniProt Q14554)
Assay: co-IP; U87MG and U251MG cells stably overexpressing Flag-mut-PDIA5 and HA-CCAR1; lysate incubated with Flag antibody or rabbit IgG at 4°C for 6 h; blot with HA antibody; called bidirectional in the results

B1: HA-CCAR1 (in GBM cells) (protein, UniProt Q8IX12 1-1150)
chain: MAQFGGQKNPPWATQFTATAVSQPAALGVQQPSLLGASPTIYTQQTALAAAGLTTQTPANYQLTQTAALQQQAAAAAAALQQQYSQPQQALYSVQQQLQQPQQTLLTQPAVALPTSLSLSTPQPTAQITVSYPTPRSSQQQTQPQKQRVFTGVVTKLHDTFGFVDEDVFFQLSAVKGKTPQVGDRVLVEATYNPNMPFKWNAQRIQTLPNQNQSQTQPLLKTPPAVLQPIAPQTTFGVQTQPQPQSLLQAQISAASITPLLQTQPQPLLQQPQQKAGLLQPPVRIVSQPQPARRLDPPSRFSGRNDRGDQVPNRKDDRSRERERERRRSRERSPQRKRSRERSPRRERERSPRRVRRVVPRYTVQFSKFSLDCPSCDMMELRRRYQNLYIPSDFFDAQFTWVDAFPLSRPFQLGNYCNFYVMHREVESLEKNMAILDPPDADHLYSAKVMLMASPSMEDLYHKSCALAEDPQELRDGFQHPARLVKFLVGMKGKDEAMAIGGHWSPSLDGPDPEKDPSVLIKTAIRCCKALTGIDLSVCTQWYRFAEIRYHRPEETHKGRTVPAHVETVVLFFPDVWHCLPTRSEWETLSRGYKQQLVEKLQGERKEADGEQDEEEKDDGEAKEISTPTHWSKLDPKTMKVNDLRKELESRALSSKGLKSQLIARLTKQLKVEEQKEEQKELEKSEKEEDEDDDRKSEDDKEEEERKRQEEIERQRRERRYILPDEPAIIVHPNWAAKSGKFDCSIMSLSVLLDYRLEDNKEHSFEVSLFAELFNEMLQRDFGVRIYKSLLSLPEKEDKKEKDKKSKKDERKDKKEERDDETDEPKPKRRKSGDDKDKKEDRDERKKEDKRKDDSKDDDETEEDNNQDEYDPMEAEEAEDEEDDRDEEEMTKRDDKRDINRYCKERPSKDKEKEKTQMITINRDLLMAFVYFDQSHCGYLLEKDLEEILYTLGLHLSRAQVKKLLNKVVLRESCFYRKLTDTSKDEENHEESESLQEDMLGNRLLLPTPTVKQESKDVEENVGLIVYNGAMVDVGSLLQKLEKSEKVRAEVEQKLQLLEEKTDEDEKTILNLENSNKSLSGELREVKKDLSQLQENLKISENMNLQFENQMNKTIRNLSTVMDEIHTVLKKDNVKNEDKDQKSKENGASV
  binding: binds

No constants are given. Whether binding was seen depends on the method and setting. In cells and extracts the contact can be indirect. Binding calls can cover weak binding; strength is not graded here. Tags and fused reporters may be left off the sequences shown.
